This is an account of results in PubChem BioAssay AID2685 (National Center for Advancing Translational Sciences (NCATS), 2010).

The list shows a part of the results. These are further read-outs of the screen, such as a control signal, another cell line or another target. No call is given for them. Compounds called inactive in the main read-out are mostly missing here. Potencies come from curve fits of mixed quality, noted in brackets.

The experiment is described as follows: qHTS Assay for Lipid Storage Modulators in Drosophila S3 Cells.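 On cell number change: cells counted by Cell Tracker Red CMTPX staining in the red channel.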 The note with it: BODIPY lipid droplet fluorescence, 18-24 h; for cell number change: measured here: cell count max response, cells fed with added oleic acid. The gist of the method:
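Drosophila S3 cells loaded with oleic acid (400 uM, as added) and compounds at several concentrations; lipid droplets imaged by 488-nm laser-scanning cytometry, 500–530 nm intensity and object ratio to cell channel. Percent activity normalized to 20 uM Triacsin C.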
In general terms: qHTS replaces the single test concentration by a dilution series.

The mark [1] stands for this setting: measured here: lipid fluorescence (Fed channel) AC50, cells fed with added oleic acid.
Setting [2] is: measured here: cell number channel AC50, cells fed with added oleic acid.

With `Nc1ccccc1-c1nnc(-c2ccccc2N)n1N`, the cell number change is -20.4%. The AC50 (as a rule, the concentration at which the activity in the assay is half-maximal) under setting [1] is 0.794 µM [falling, single point].
On to `CCN(C(=O)CCN1C(=O)/C(=C/c2ccccc2)SC1=S)C1CCS(=O)(=O)C1` (configuration not stated), for which the AC50 under setting [1] is 13 µM [falling, partial curve].
As for `CC(/C=N/NC(=O)c1nnn(-c2nonc2N)c1C)=C\c1ccccc1`, the cell number change turned out to be 17.2%.
Turning to `COC(=O)c1ccc(Sc2ccccc2NS(=O)(=O)c2ccc(OC)cc2)nc1`, the cell number change came out at 55.7%. The AC50 under setting [1] is 7.31 µM [rising, partial curve].
As to `COC(=O)C1=C(C)N(Cc2ccco2)C(=O)/C1=C\c1ccc([N+](=O)[O-])cc1`, the cell number change was -5.5%. Also, the AC50 under setting [2] is 4.61 µM [falling, partial curve, poor fit]. In addition, under setting [1], the AC50 is 7.31 µM [falling, partial curve, poor fit].
Turning to `Cc1cccc(C(=O)N2CCN(S(=O)(=O)N3CCCCCC3)CC2)c1`, the cell number change was 2.86%. The AC50 under setting [1] is 29.1 µM [rising, single point].
`COc1ccc(C2NCCc3c2[nH]c2ccccc32)cc1CN1CCc2cc(OC)c(OC)cc2C1C` (configuration not stated): the cell number change was 19.7%. The concentration at half-maximal activity (AC50) under setting [1] was 13 µM [rising, partial curve, poor fit].
For `O=C(O)C1CCN(Cc2ccccn2)CC1`, the cell number change is -35.9%. Moreover, under setting [2], the AC50 is 20.6 µM [falling, single point]. Also, the AC50 under setting [1] was 2.31 µM [rising, partial curve].
Consider `COc1ccccc1C(=O)NCCC(=O)Nc1ccc(C)cn1`, for which, under setting [1], the AC50 was 8.2 µM [falling, partial curve].
As for `CCc1onc(C)c1C(=O)Nc1ccc2c(c1)OCO2`, the cell number change was found to be 4.05%. For the same molecule, the concentration at half-maximal activity (AC50) under setting [1] is 0.461 µM [falling, full curve, poor fit].
In the case of `O=C1c2cccc3cccc(c23)C(=O)N1CCN1CCN(C(=S)Nc2ccc(F)cc2)CC1`, the AC50 was 2.91 µM [rising, single point] under setting [2] and 2.06 µM [rising, partial curve] under setting [1].
Take `O=C(NCc1ccccn1)c1cc(-c2ccc(Cl)cc2)nc2ccccc12`: the cell number change turned out to be 0.853%. In addition, under setting [1], the concentration at half-maximal activity (AC50) was 2.06 µM [rising, full curve].
On to `CNC(=O)CSc1nc2[nH]ncc2c(=O)[nH]1`, for which, under setting [1], the AC50 is 0.291 µM [falling, partial curve, poor fit].
On to `Cc1nnc(OC(C)C)c2nn(-c3ccccc3F)c(C)c12`, for which the cell number change was 44.4%.
Regarding `CCCCCCSc1ccc([C@H]2N[C@@](Cc3ccccc3)(C(=O)OC)[C@H]3C(=O)N(C)C(=O)[C@@H]23)cc1OC`, the cell number change stood at 29.1%. Besides, the half-maximal activity concentration (AC50) under setting [1] is 14.6 µM [rising, partial curve].
As to `COc1cc(C=C(c2nc3ccccc3s2)c2nc3ccccc3s2)ccc1O`, the cell number change is -94.1%. The AC50 under setting [2] was 16.4 µM [falling, single point]. Under setting [1], the AC50 is 25.9 µM [falling, single point].
Consider `O=C1CCC/C(=N\NC(=O)c2ccc(COc3ccccc3-c3ccccc3)cc2)C1`, for which the cell number change was 4.88%. Also, the AC50 under setting [1] is 0.13 µM [falling, full curve, poor fit].
Turning to `Cn1nc(-c2ccccc2)c(C(=O)Nc2ccc(C(F)(F)F)cc2)c1Cl`, the cell number change was 18.8%. In addition, the AC50 under setting [1] is 8.2 µM [rising, partial curve, poor fit].
For the molecule `CC(C)(C)c1nc(SCC(=O)NNC(=O)c2ccccc2)c2ccccc2n1`, the cell number change was determined as 5.83%. Under setting [1], the AC50 is 2.06 µM [falling, partial curve].
Take `Cc1ccc(N(C)S(=O)(=O)c2cccc(C(=O)Nc3ccc(C)cn3)c2)cc1`: the cell number change was -12.8%. For the same molecule, the AC50 under setting [1] is 29.1 µM [falling, single point].
For the molecule `CCC(=O)Oc1c(S(=O)(=O)c2ccc(C)cc2)c(C)nn1C(C)(C)C`, the cell number change is -5.57%.
As for `Cn1nnc(NCc2cc(Br)ccc2OCc2cccs2)n1`, the cell number change was -2.97%.
As for `CN1CCN(c2nc(-c3ccccc3)nc(-c3ccccc3)c2C#N)CC1`, the cell number change was found to be 5.54%. Further, the AC50 under setting [1] is 4.61 µM [falling, partial curve].
As to `O=C(CN1CCN(S(=O)(=O)c2ccc(F)cc2)CC1)Nc1cc(C(F)(F)F)ccc1Cl`, the cell number change was -11.3%.
On to `CN(C)S(=O)(=O)c1cc(NC(=O)CN2CCNC(=O)C2)ccc1Cl`, for which the cell number change was -5.34%.
For the molecule `CC1(C)CC(NC(=O)Cc2ccc(Cl)cc2)CC(C)(C)N1`, the cell number change stood at 5.82%.
With `Cc1c(C(=O)N2CCCCC2)c(S(=O)(=O)Nc2ccc(F)cc2F)c(C)n1C`, the cell number change was -10.5%.
Turning to `Cc1cc(C(=O)CSc2nc(N)cc(=O)[nH]2)c(C)n1CCc1ccc(F)cc1`, the cell number change is -26.1%. Also, the AC50 under setting [1] is 29.1 µM [falling, single point].
`CCOc1ccc(NC(=O)C2CCN(S(=O)(=O)c3ccc4c(c3)NC(=O)C(C)S4)CC2)cc1` (configuration not stated): the concentration at half-maximal activity (AC50) under setting [1] was 1.3 µM [falling, full curve].
Turning to `O=c1cn[nH]c2ccccc12`, the cell number change was -7.36%. Moreover, the AC50 under setting [1] is 0.13 µM [falling, full curve, poor fit].
As for `CC(C)(C)NC(=O)CSc1nc2scc(-c3ccccc3)c2c(=O)[nH]1`, the cell number change came out at 29.8%. In addition, under setting [1], the AC50 was 2.59 µM [falling, single point].
In the case of `Cc1ccccc1OCC(O)CN(Cc1ccccc1O)C1CCCCC1` (configuration not stated), the cell number change was -7.38%.
Take `OC(CN1CCN(c2ccccc2)CC1)Cn1c2ccccc2c2ccccc21` (configuration not stated): the cell number change was -27.4%. In addition, the AC50 under setting [1] was 18.4 µM [falling, single point].
Consider `COc1cc(/C=C/c2cc[n+](C)cc2)ccc1OCC(=O)Nc1ccccc1`, for which the cell number change worked out at 26.9%. The half-maximal activity concentration (AC50) under setting [1] is 29.1 µM [rising, single point].
For `CSC1=NCCN1C(=O)Cc1ccc(Cl)cc1`, the cell number change turned out to be 21%.
Regarding `Cc1ccc(NC(=S)Nn2cnnc2)cc1`, the cell number change was -33.1%. For the same molecule, the AC50 under setting [2] is 0.731 µM [falling, full curve]. For the same molecule, the AC50 under setting [1] is 0.58 µM [falling, full curve].
Take `CC(=O)C1=C(C)Nc2ncnn2C1c1ccccc1` (configuration not stated): the cell number change was found to be 7.67%.
For the molecule `Cc1cc(OCC(=O)Nc2ccncc2)ccc1Br`, the cell number change is -15.8%. Under setting [1], the AC50 was 25.9 µM [falling, single point].
Regarding `Cc1ccc(C(=O)NNC(=O)Cn2ccc(C(F)(F)F)n2)o1`, the cell number change was -48.8%. Besides, under setting [2], the AC50 is 18.4 µM [falling, single point]. Also, under setting [1], the AC50 was 29.1 µM [falling, single point].
Take `COc1cc(C(=O)N2CCN(C(=O)c3cccc4ccccc34)CC2)cc(OC)c1OC`: the cell number change stood at 6.41%. The AC50 under setting [1] is 0.103 µM [rising, partial curve, poor fit].
Turning to `CCNC(=O)n1cc(-n2cncn2)c(-c2ccc(Cl)cc2)n1`, the cell number change is -15.8%.
With `CC1(C)C(=O)OC(c2ccco2)C(C)(C)C1=O` (configuration not stated), the cell number change was -41.5%. The half-maximal activity concentration (AC50) under setting [2] is 2.31 µM [falling, partial curve, poor fit]. Besides, the AC50 under setting [1] is 3.66 µM [falling, full curve].
Turning to `CC(=O)c1ccc(N2CCN(CC(=O)N(C3CC3)C3CCS(=O)(=O)C3)CC2)c(F)c1` (configuration not stated), the cell number change turned out to be 20.8%. Besides, the AC50 under setting [1] is 16.4 µM [rising, single point].
Regarding `COc1ccc(-n2c(=S)[nH]c3cc(C(=O)NCCCN4CCCC4=O)ccc3c2=O)cc1OC`, the cell number change was 9.98%.
In the case of `O=C(CCN1CCN(c2ccccc2F)CC1)Nc1ccc(F)cc1`, the cell number change turned out to be 14.2%. Under setting [1], the AC50 is 29.1 µM [rising, single point].
With `COc1cccc(CN2CC(O)=C(c3nc(-c4ccc(Cl)cc4)cs3)C2=N)c1`, the cell number change is -31.5%. Moreover, the AC50 under setting [2] was 2.06 µM [falling, full curve].
For `COCCn1c(=S)[nH]c2cc(C(=O)N3CCCC(C)C3)ccc2c1=O` (configuration not stated), the cell number change was -33.7%. The half-maximal activity concentration (AC50) under setting [2] is 18.4 µM [falling, single point]. The AC50 under setting [1] was 29.1 µM [falling, single point].
For `O=C(CN1C(=O)COc2ccccc21)N(Cc1cccnc1)Cc1ccccc1F`, the cell number change came out at 290%. Also, under setting [2], the AC50 was 18.4 µM [rising, partial curve]. Also, the AC50 under setting [1] is 20.6 µM [rising, partial curve].
For the molecule `COc1cc(OC)cc(C(=O)Nc2cccc3cccnc23)c1`, the cell number change was 13.5%. Under setting [1], the AC50 was 6.51 µM [rising, single point].
For `O=C(CSc1nnc(-c2ccccc2)n1Cc1ccccc1)N1CCOCC1`, the cell number change was found to be 18.4%. Also, under setting [1], the AC50 is 3.26 µM [falling, full curve].
Take `O=C(c1ccc(C(F)(F)F)cc1)C1CCCN(C(=O)CCc2ccncc2)C1` (configuration not stated): the cell number change amounted to 16.5%.
On to `COCCN(C(=O)CCC(=O)Nc1nccs1)C(C(=O)NC(C)(C)C)c1ccc(C)cc1` (configuration not stated), for which the AC50 under setting [1] was 5.17 µM [rising, single point].
As to `COc1ccc(CC(=O)NCC2CCCN(Cc3cc(OC)cc(OC)c3)C2)cc1` (configuration not stated), the cell number change was found to be 21.3%.
Turning to `O=C(CSc1nnc(-c2ccco2)n1-c1ccccc1)NCCc1ccccc1`, the cell number change was -0.684%. The AC50 under setting [1] was 8.2 µM [rising, partial curve, poor fit].
On to `CN(CCCC(=O)NCc1ccccc1)S(=O)(=O)c1ccc([N+](=O)[O-])cc1`, for which the cell number change is 1.76%.
As for `S=C(NCCc1ccccc1)NCc1ccccc1Cl`, the cell number change is -36.1%. In addition, under setting [2], the AC50 is 0.259 µM [falling, full curve, poor fit]. In addition, the AC50 under setting [1] is 18.4 µM [falling, partial curve].
With `CCOc1ccc(/C=C2/Sc3ccc(C(=O)N4CCN(C(=O)c5ccco5)CC4)cc3N(C)C2=O)cc1OC`, under setting [2], the AC50 is 0.82 µM [rising, single point].
Consider `CCc1c(C)sc(NC(=O)/C=C/C(=O)O)c1C(N)=O`, for which the cell number change is -48.2%. Moreover, under setting [2], the AC50 was 29.1 µM [falling, single point].
On to `Cc1cccc(C)c1NC(=O)/C(=C/c1ccco1)c1ccccc1`, for which the cell number change was determined as 133%. The AC50 under setting [2] is 25.9 µM [rising, single point]. Moreover, the concentration at half-maximal activity (AC50) under setting [1] is 0.146 µM [rising, full curve, poor fit].
In the case of `CCOc1ccccc1NC(=O)COC(=O)CC(NC(N)=O)c1ccc(Cl)cc1` (configuration not stated), the AC50 was 6.51 µM [falling, single point] under setting [2] and 6.51 µM [falling, single point] under setting [1].
For `CC(C(=O)N(C)c1ccccc1)N1CCN(C(=O)c2ccccc2)CC1` (configuration not stated), the cell number change was -19.8%. The AC50 under setting [1] is 0.58 µM [rising, single point].
In the case of `O=C(C1CCCCC1)N1CCN(S(=O)(=O)c2ccc(Cl)cc2)CC1`, the cell number change was determined as 1.7%. The AC50 under setting [1] is 6.51 µM [rising, single point].
